According to article PMC3995007, “GTP binding controls complex formation by the human ROCO protein MASL1” (The Febs Journal, 2013):
Where a chain is given by its changes, count along the chain named. These are yes or no findings as the source states them, for the method shown. For some of these results: Binding seen in cells or lysates may run through a third protein. Some results given as binding are weak or reduced against the parent protein; the word gives no strength. Tags and fused reporters may be left off the sequences shown.

Chains of the proteins cited; added tags and fusions are not shown. Residues count along the entry.
UniProt P10809, residues 27-573: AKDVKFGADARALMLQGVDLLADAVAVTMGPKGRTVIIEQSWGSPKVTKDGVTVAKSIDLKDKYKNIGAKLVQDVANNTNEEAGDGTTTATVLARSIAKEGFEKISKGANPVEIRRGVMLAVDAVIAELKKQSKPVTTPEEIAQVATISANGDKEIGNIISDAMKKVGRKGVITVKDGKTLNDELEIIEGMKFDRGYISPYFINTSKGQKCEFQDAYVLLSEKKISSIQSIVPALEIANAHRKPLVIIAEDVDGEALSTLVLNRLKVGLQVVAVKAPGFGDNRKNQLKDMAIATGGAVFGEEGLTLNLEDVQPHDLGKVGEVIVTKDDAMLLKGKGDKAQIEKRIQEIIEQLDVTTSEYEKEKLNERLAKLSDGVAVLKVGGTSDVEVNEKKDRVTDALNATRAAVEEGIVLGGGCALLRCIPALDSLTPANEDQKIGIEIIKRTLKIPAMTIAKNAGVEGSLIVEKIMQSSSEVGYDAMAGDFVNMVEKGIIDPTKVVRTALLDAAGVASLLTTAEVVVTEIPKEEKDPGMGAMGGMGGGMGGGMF

Legend:
[1] = molecular target: T1, FLAG-tagged K422A MASL1 (human) (UniProt Q9Y4C4); test: co-IP; FLAG-tagged MASL1 immunoprecipitated from HEK293T lysates, immunoblot for HSP60
T1 sequence: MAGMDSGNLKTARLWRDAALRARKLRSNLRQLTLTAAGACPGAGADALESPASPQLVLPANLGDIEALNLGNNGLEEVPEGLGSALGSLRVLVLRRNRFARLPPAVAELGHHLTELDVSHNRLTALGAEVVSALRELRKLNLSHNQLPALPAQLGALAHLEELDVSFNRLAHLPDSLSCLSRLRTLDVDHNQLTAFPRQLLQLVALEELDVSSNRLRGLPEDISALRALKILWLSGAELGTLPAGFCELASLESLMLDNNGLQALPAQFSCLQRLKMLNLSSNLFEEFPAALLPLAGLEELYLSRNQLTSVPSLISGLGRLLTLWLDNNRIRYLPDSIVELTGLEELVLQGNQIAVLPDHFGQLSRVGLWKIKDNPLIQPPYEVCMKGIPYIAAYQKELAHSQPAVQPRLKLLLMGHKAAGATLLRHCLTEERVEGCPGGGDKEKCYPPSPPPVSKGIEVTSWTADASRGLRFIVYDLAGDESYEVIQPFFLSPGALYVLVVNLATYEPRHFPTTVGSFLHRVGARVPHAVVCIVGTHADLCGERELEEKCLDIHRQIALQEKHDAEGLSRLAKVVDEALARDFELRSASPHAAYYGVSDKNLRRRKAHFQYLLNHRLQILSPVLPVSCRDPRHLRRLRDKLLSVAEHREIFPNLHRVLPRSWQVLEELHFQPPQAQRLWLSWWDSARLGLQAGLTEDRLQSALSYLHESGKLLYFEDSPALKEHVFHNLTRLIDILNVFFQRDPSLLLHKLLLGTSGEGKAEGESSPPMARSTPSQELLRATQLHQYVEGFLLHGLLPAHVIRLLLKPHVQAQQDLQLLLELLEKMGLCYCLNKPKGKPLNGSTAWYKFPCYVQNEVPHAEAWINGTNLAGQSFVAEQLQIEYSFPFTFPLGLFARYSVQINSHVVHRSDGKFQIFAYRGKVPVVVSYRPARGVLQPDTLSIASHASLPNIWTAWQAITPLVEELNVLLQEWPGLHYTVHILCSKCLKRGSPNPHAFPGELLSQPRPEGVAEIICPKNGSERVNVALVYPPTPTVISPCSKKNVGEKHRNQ

[2] = molecular target: T2, FLAG-tagged wild type MASL1 (malignant fibrous histiocytoma amplified sequences with leucine-rich tandem repeats 1) (human) (UniProt Q9Y4C4); test: as above
T2 sequence: T1 sequence with A422K

[3] = molecular target: T3, HA-tagged K422A MASL1 (human) (UniProt Q9Y4C4); test: SEC; lysates of MASL1 transfected HEK293T cells on Superose 6 10/300; 20 mM Tris/HCl pH 7.5, 150 mM NaCl, 0.07% Tween-20; fractions probed by dot blot for HA and HSP60
T3 sequence: T1 sequence

[4] = molecular target: T4, HA-tagged wild type MASL1 (human) (UniProt Q9Y4C4); test: as above
T4 sequence: T1 sequence with A422K

Measured: binding

Heat shock protein 60 (HSP60) (from UniProt P10809 27-573)
binds: all assays above
